In patent US20260242759A1, “GQ/11 Protein Peptidomimetics” (Vrije Universiteit Brussel, priority 2022, published 2026):
For at least one compound, name, drawing or mass did not settle the structure. Some compounds share one wording; it may come from a single statement. Positions of bridges follow the written chain, without caps; N, C: chain ends. Non-standard residues stand in square brackets, D forms with d. Residues, ends and D or L forms follow the SMILES beside them. Triazole bridges read from a SMILES are 1,4-linked. Lys(N3) = [N-]=[N+]=NCCCC[C@H](N)C(=O)O; Pra = C#CC[C@H](N)C(=O)O

By UniProt entry, the sequences of proteins in these tests, tags left out.
UniProt Q92847, whole entry C146S/C304S: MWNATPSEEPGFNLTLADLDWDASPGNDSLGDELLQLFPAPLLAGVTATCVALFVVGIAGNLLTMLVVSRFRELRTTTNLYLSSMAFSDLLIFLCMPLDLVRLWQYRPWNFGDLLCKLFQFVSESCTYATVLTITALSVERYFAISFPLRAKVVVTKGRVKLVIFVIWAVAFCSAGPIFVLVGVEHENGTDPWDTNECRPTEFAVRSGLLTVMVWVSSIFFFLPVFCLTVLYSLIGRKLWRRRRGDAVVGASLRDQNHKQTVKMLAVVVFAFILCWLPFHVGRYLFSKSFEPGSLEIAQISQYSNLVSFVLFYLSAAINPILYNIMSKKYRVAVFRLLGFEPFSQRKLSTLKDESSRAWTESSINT
UniProt Q92847, whole entry: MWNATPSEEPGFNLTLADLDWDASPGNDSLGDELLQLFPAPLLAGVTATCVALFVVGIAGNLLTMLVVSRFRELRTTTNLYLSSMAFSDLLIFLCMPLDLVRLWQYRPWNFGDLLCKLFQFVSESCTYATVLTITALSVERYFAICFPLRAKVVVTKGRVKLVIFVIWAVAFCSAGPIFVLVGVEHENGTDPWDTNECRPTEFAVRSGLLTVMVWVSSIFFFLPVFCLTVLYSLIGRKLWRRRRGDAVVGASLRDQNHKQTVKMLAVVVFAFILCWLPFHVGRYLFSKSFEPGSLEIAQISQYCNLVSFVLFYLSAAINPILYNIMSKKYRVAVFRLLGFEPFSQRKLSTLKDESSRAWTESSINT

Experiments:
[1] = biological target: T1, human muscarinic 1 receptor (M1R) (Homo sapiens, UniProt P11229); test: Radioligand binding assay (RLA) on M1R membrane extracts; details: IC50 of agonist without mimetic divided by IC50 with mimetic; averaged value
T1 construct: The M1R constructs used in this assay consisted of the full-length human muscarinic 1 receptor; FLAG (N); expressed in transfected cells; membrane extracts
T1 sequence (P11229 1-460): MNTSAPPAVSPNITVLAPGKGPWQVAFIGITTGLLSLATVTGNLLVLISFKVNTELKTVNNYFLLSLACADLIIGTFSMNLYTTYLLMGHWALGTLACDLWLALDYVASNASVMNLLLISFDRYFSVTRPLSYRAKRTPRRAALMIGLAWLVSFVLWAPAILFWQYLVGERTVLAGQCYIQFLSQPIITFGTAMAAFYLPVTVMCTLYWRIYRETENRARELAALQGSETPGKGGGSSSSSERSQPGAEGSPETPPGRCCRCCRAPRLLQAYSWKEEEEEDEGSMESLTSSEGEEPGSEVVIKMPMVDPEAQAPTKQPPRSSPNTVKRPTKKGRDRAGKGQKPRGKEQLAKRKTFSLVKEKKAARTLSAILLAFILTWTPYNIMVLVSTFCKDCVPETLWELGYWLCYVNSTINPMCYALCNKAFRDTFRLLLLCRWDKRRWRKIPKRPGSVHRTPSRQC
Text: A radioligand displacement assay can quantify the pharmacological stabilization of the GPCR in the active conformation by comparing the affinities of an agonist for the basal versus the active GPCR conformer. In particular, stabilization of a GPCR in an active conformational state or specific binding to a GPCR in an active conformational state by a G protein peptidomimetic or a Gq/11 protein peptidomimetic as disclosed herein can be determined based on the shift in IC50 value of a ligand, in particular an agonist more particularly an orthosteric agonist, which binds to the GPCR when tested in the presence and the absence of the G protein peptidomimetic or the Gq/11 protein peptidomimetic. During the assay, the binding affinity of an orthosteric agonist for the receptor in presence and absence of the (allosteric) peptidomimetic is determined. […]
The membrane extracts were prepared from cells that overexpressed muscarinic acetylcholine 1 receptor (M1R), by resuspending the cell pellet in a buffer (1 ml buffer/2×1E7 cells) containing 20 mM Hepes (pH 7.4), 100 mM NaCl, Leupeptin and phenylmethylsulfonyl fluoride (PMSF). […] The protein concentration in the membrane extracts was determined using a Pierce™ bicinchoninic acidv (BCA) Protein Assay Kit and the protein concentration was extrapolated from the Bovine Serum Albumine standard curve. […]

[2] = biological target: T2, human ghrelin receptor (GHSR) (Homo sapiens, UniProt Q92847, C146S/C304S); test: Bimane fluorescence assay on purified ghrelin receptor in nanodiscs; type: biochemical; details: bimane labeled GHSR, in presence of full agonist JMV1843 (20 μM)
T2 construct: integrin α5 fragment (N); polyhistidine tag (C); made in house; host or cells: E. coli BL21(DE3)
Text: Another assay that can be used to analyse conformational changes associated with GPCR activation and/or to identify G protein peptidomimetics that are capable of stabilizing a GPCR in an active conformational state is the bimane fluorescence assay or bimane assay. This assay works through labelling of a cysteine residue in the lower part of the TM6 of a GPCR with a bimane-fluorophore (monobromobimane (MB)). Binding of an agonist to the GPCR causes a conformational change and outward movement of TM6 that places bimane in a more solved-exposed position, which will alter its maximum emission wavelength. In particular, increasing concentrations of agonist result in a concentration-dependent red-shift of the maximum emission wavelength (λmax) of the bimane-fluorophore probe. In the presence of a G protein or an active state stabilizing G protein peptidomimetic λmax may increase further. […]
The bimane fluorescence assays on the ghrelin receptor were performed as described in Damian et al. (2021. Nat. Commun. 12:1-15). […]
For the fluorescence assay, the labeled receptor was incubated during 2 h at 20° C. […] Afterwards, the fluorescence experiments were performed on a Horiba Fluoromax-4 TCSP spectrofluorimeter. […]

ghrelin receptor = biological target: T3, ghrelin receptor (Homo sapiens, UniProt Q92847); test: IP-One Gq assay; type: cell-based; details: peptidomimetic at 10 μM, varying MK0677; FIG. 8
T3 construct: expressed in transfected cells; host or cells: HEK293 cells overexpressing the ghrelin receptor

SMILES | Shift [1] | maximum emission wavelength of bimane [2] | receptor activation / fluorescence ratio (665 nm/620 nm) vs absence of peptidomimetic (ghrelin receptor)
CC[C@H](C)[C@H](NC(=O)[C@@H]1CCCCn2cc(nn2)C[C@H](NC(=O)[C@H](C)NC(=O)[C@H](Cc2ccccc2)NC(=O)[C@H](CCCCN)NC(=O)[C@H](CCCCN)NC(=O)[C@H](CCCCN)NC(C)=O)C(=O)N[C@@H](C(C)C)C(=O)N[C@@H](CCCCN)C(=O)N[C@@H](CC(=O)O)C(=O)N1)C(=O)N[C@@H](CC(C)C)C(=O)N[C@@H](CCC(N)=O)C(=O)N[C@@H](CC(C)C)C(=O)N[C@@H](CC(N)=O)C(=O)N[C@@H](CC(C)C)C(=O)N[C@@H](CCCCN)C(=O)N[C@@H](CCC(=O)O)C(=O)N[C@@H](Cc1ccc(O)cc1)C(=O)N[C@@H](CC(N)=O)C(=O)N[C@@H](CC(C)C)C(=O)N[C@H](C(=O)O)C(C)C [SBL-GQ-05] (Ac-KKKFA[Pra]VKD[Lys(N3)]ILQLNLKEYNLV-OH; triazole 6-10) | 1 | ~478 nm | Almost no difference in receptor activation
CC[C@H](C)[C@H](NC(=O)[C@@H]1CCCCn2cc(nn2)C[C@H](NC(=O)[C@H](C)NC(=O)[C@H](Cc2ccccc2)NC(=O)[C@H](CCCNC(=N)N)NC(=O)[C@H](CCCNC(=N)N)NC(=O)[C@H](CCCNC(=N)N)NC(=O)[C@H](CCCNC(=N)N)NC(=O)[C@H](CCCNC(=N)N)NC(=O)[C@H](CCCNC(=N)N)NC(=O)[C@H](CCCNC(=N)N)NC(=O)[C@@H](N)CCCNC(=N)N)C(=O)N[C@@H](C(C)C)C(=O)N[C@@H](CCCCN)C(=O)N[C@@H](CC(=O)O)C(=O)N1)C(=O)N[C@@H](CC(C)C)C(=O)N[C@@H](CCC(N)=O)C(=O)N[C@@H](CC(C)C)C(=O)N[C@@H](CC(N)=O)C(=O)N[C@@H](CC(C)C)C(=O)N[C@@H](CCCCN)C(=O)N[C@@H](CCC(=O)O)C(=O)N[C@@H](Cc1ccc(O)cc1)C(=O)N[C@@H](CC(N)=O)C(=O)N[C@@H](CC(C)C)C(=O)N[C@H](C(=O)O)C(C)C [SBL-GQ-15] (H-RRRRRRRRFA[Pra]VKD[Lys(N3)]ILQLNLKEYNLV-OH; triazole 11-15) |  |  | decrease in fluorescence ratio
